Source: patent US20040241706A1, “Highly specific modulators of GTPases for target validation” (IRM, LLC, priority 2002, published 2004)
Some results were stated once for a whole list of compounds, not compound by compound. For at least one compound, name, drawing or mass did not settle the structure.

Target: T1, mutant Ras (19A-116A) (Homo sapiens, UniProt P01112, L19A/N116A)
T1 construct: made in house; host or cells: E. coli BL21-Gold, pGEX vector
Experiment: Ras inhibitor / guanine nucleotide exchange assay with 3H-GDP, double mutant L19A-N116A
Assay type: binding
Settings: FIG. 13 panel B
Source text: One exemplary assay which can be used are Ras “inhibition” or “guanine nucleotide exchange” assays, as schematically illustrated in FIG. 8, and described in detail in the Examples hereinbelow. The assay detects inhibition of wild-type and mutant Ras proteins by using ^3H-labelled GDP and cold (non-tritiated) synthetic Ras inhibitors.
FIG. 11 graphically illustrates the inhibition of double mutant L19A-N116A (SEQ ID No. 11) by various C-6 substituted GTP moieties (compounds 39 through 42, presented as a-d in the figure), as compared to the negative control (nothing added to displace the radiolabeled GDP), positive control (cold GDP), and background count (no GTPase enzyme added).
The GTPase modulators of the present invention were screened against wild-type and/or mutant GTPases for their effectiveness as GTPase inhibitors. Ras inhibitor assays were performed to test the activity of the synthesized modulators against various wild-type and/or mutant GTPases of interest, and/or to compare the different modulators based upon the relative observed level of inhibition.
For example, purified mutant Ras (19A-116A) or wild type H-Ras protein (0.5 to 20 μg) was incubated in 40 μL of GTP exchange buffer (50 mM Tris-HCl pH 7.5, 50 mM NaCl, 5 mM EDTA, 1 mM DTT, 1 mg/mL BSA) containing either DMSO, GTP (100 μM) or a modulator (100 μM) for 30 min at 25° C. This pre-incubation was followed by the additions of 2 μCi ^3H-GDP (NEN, #NET966) and, 10 min later, 25 mM MgCl2. After another 5 min of incubation, the reaction mixture was applied to a nitrocellulose filter (Millipore, #HAWP02500) pre-wetted with wash buffer (50 mM Tris-HCl pH 7.5, 10 mM MgCl2), the filter was then washed using 10 mL of wash buffer. Filters were dried and the bound radioactivity was measured by scintillation counting (Beckman, #LS6500).
Cold GDP was used as a positive control. Since the positive control naturally replaces the radioactive GDP in both the wild-type and mutant GTPase proteins, significant drops in radiolabeling are observed. Water was used as a negative control. All of the measurements are in comparison to a background radioactivity count, such that the level of inhibition for a given compound was determined by the number of counts in comparison to the control. Thus, a high radioactivity count is indicative of a high level of binding between the mutant GTPase and the radioactive GDP.

| Molecule | inhibitory effect on the L19A-N116A mutant |
| --- | --- |
| Nc1nc2c(c(CCc3ccccc3)cn2[C@@H]2O[C@H](COP(=O)(O)OP(=O)(O)O)[C@@H](O)[C@H]2O)c(=O)[nH]1 [Compound 60, 7-deaza-7-(2″-phenyl)ethyl guanosine-5′-diphosphate] | 80-95% |
| Nc1nc2c(c(CCc3ccc(F)cc3)cn2[C@@H]2O[C@H](COP(=O)(O)OP(=O)(O)O)[C@@H](O)[C@H]2O)c(=O)[nH]1 [Compound 61, 7-deaza-7-[2″-(4-fluoro)phenyl]ethyl guanosine-5′-diphosphate] | 80-95% |

Same assay, conditions: relative counts vs negative control; FIG. 11

| Molecule | inhibitory effect on the activity of the L19A-N116A double mutant |
| --- | --- |
| 6-N-(2″-methyl)propyl guanosine-5′-triphosphate [Compound 42] | very little inhibitory effect |
| 6-N-(2″-phenyl)ethyl guanosine-5′-triphosphate [Compound 41] | very little inhibitory effect |
| 6-N-benzyl guanosine-5′-triphosphate [Compound 39] | very little inhibitory effect |
| CC(C)COc1nc(N)nc2c1ncn2[C@@H]1O[C@H](COP(=O)(O)OP(=O)(O)OP(=O)(O)O)[C@@H](O)[C@H]1O [Compound 40, 6-O-(2″-methyl)propyl guanosine-5′-triphosphate] | very little inhibitory effect |
